Taken from: PubChem BioAssay AID1259254 (NCATS, 2017)

- Aim: 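Finding genes that stop cells copying their DNA twice in one cycle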 (primary screen)
- System: human HCT116 colorectal cancer cells
- Reagent: single siRNA against human genes
- Time to read-out: 3 days
- Read-out: 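Imaged Hoechst DNA stain sorts each cell into a cycle phase by DNA amount; per plate, G2 fraction set to 0% for non-targeting and 100% for GMNN siRNA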
- Reading the numbers: G2 robust z-score: higher = more G2 cells, more excess DNA replication
- Active means: 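Active siRNAs have a G2 robust z of 5 or more median absolute deviations over the median, which in these data means about 38% or higher of GMNN control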
Here is one part, drawn at random, of about 59,000 deposited reagents. Of all reagents, about 1,550 (2.6%) got an active call. 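G2 share is only a proxy for re-replication; each gene was hit by three separate siRNAs, and active genes were retested.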 A number with no mark means an inactive call. The numbers tell different reagents against one gene apart. Further read-outs or replicates are left out here. Not given: the amount of reagent.

no.	gene symbol	reagent no.	G2 robust z-score
1	PMCH	1	-0.859
2	PMCH	2	0.143
3	PMCH	3	0.13
4	CD6	1	1.31
5	CD6	2	4.42
6	CD6	3	3.86
7	ALOX12	1	-0.0726
8	ALOX12	2	0.532
9	ALOX12	3	-1.04
10	XPA	1	-0.296
11	XPA	2	0.23
12	XPA	3	-0.64
13	TLDC2	1	-0.952
14	TLDC2	2	-0.299
15	TLDC2	3	0.044
16	IL20RA	1	-1.19
17	IL20RA	2	-0.752
18	IL20RA	3	1.7
19	ALG8	1	2.19
20	ALG8	2	-0.516
21	ALG8	3	0.315
22	MAGEA1	1	-0.175
23	MAGEA1	2	0.517
24	MAGEA1	3	2.02
25	KIAA1586	1	-0.85
26	KIAA1586	2	0.315
27	KIAA1586	3	-0.399
28	CFP	1	-0.158
29	CFP	2	-0.189
30	CFP	3	-1.11
31	P4HA3	1	-1.23
32	P4HA3	2	-0.495
33	P4HA3	3	-0.039
34	ICMT	1	1.3
35	ICMT	2	2.33
36	ICMT	3	0.51
37	PKIB	1	-0.91
38	PKIB	2	-1.16
39	PKIB	3	-0.442
40	MAN1A1	1	0.274
41	MAN1A1	2	-0.589
42	MAN1A1	3	-1.45

Single entries from the entries so far.
PKIB #2, G2 robust z-score → -1.16
For “G2 robust z-score”, ICMT #1 shows 1.3
Entry of MAGEA1 #3 under “G2 robust z-score”: 2.02
KIAA1586 #3, G2 robust z-score: -0.399
CD6 #3, G2 robust z-score: 3.86
Under “G2 robust z-score”, KIAA1586 #1 reads -0.85

The results go on:
no.	gene symbol	reagent no.	G2 robust z-score
43	KCNV2	1	2.49
44	KCNV2	2	-0.838
45	KCNV2	3	0.224
46	MAP3K5	1	-0.962
47	MAP3K5	2	-1.35
48	MAP3K5	3	-0.966
49	B3GNT2	1	-0.737
50	B3GNT2	2	-1.13
51	B3GNT2	3	1.67
52	MRPS11	1	-0.58
53	MRPS11	2	-0.216
54	MRPS11	3	-0.827
55	ZNF767P	1	-0.0171
56	ZNF767P	2	1.83
57	ZNF767P	3	-0.681
58	LETM1	1	0.729
59	LETM1	2	-0.602
60	LETM1	3	-0.6
61	SMIM7	1	-0.378
62	SMIM7	2	-0.286
63	SMIM7	3	0.882
64	LIN7A	1	0.152
65	LIN7A	2	1.38
66	LIN7A	3	0.273
67	PDXK	1	1.81
68	PDXK	2	0.828
69	PDXK	3	1.66
70	LOC729324 (retired record)	1	1.34
71	LOC729324 (retired record)	2	0.593
72	LOC729324 (retired record)	3	0.135
73	SPOCK2	1	-0.714
74	SPOCK2	2	1.23
75	SPOCK2	3	-0.924
76	SERPINB10	1	-1.01
77	SERPINB10	2	1.04
78	SERPINB10	3	0.402
79	C6orf132	1	-0.854
80	C6orf132	2	-0.6
81	C6orf132	3	0.0885
82	C6orf132	4	-0.715
83	C6orf132	5	-1.06
84	C6orf132	6	1.03
85	SLF1	1	-1.2
86	SLF1	2	-0.372
87	SLF1	3	-0.0318
